Assay results from publication doi:10.1101/750596.
Results are given in words; binding and its absence hold for the method and conditions named. In cells and extracts the contact can be indirect. Here binding means that the protein was enriched with, or labelled near, the bait; the list need not be complete. No binding means not detected with the bait.

B1: CDC34 (E2 conjugating enzyme) (enzyme, UniProt Q8CFI2 1-235)
chain: MARPLVPSSQKALLLELKGLQEEPVEGFRVTLVDEGDLYNWEVAIFGPPNTYYEGGYFKARLKFPIDYPYSPPAFRFLTKMWHPNIYETGDVCISILHPPVDDPQSGELPSERWNPTQNVRTILLSVISLLNEPNTFSPANVDASVMYRKWKESKGKDREYTDIIRKQVLGTKVDAERDGVKVPTTLAEYCVKTKAPAPDEGSDLFYDDYYEDGEVEEADSCFGDEEDDSGTEES
B2: RNF212 (protein, UniProt F6TQD1 1-307)
chain: MASWVFCNRCFQSPHRKSSFSLTSCGHVYCHSCLLKGTKNECVICQAPCQTVLLSKHTNSNIQTFFLGIDGLCKKYSQETSQISEFQEKHRRRLVAFYQEKISQLEESLRKSVLQIKQLQSMRSSQQPAFNKIKNSVSTKPNGYLFLPPNSSLPDRIESMDIDLTPPARKPEMSAGPSRISVISPPQDGRMGSVTCRGPQHLSLTPSHASMTKASRVPPLQMPYKELSPPPASQLSSRATQGPSPSVSSSWTGPPRQPISISGLLQRQCAGSASPRGMDTEKMSPFLPSTPTNLRSVASPWHACVHR
B3: HEI10 (putative ubiquitin E3 ligase) (protein, UniProt D3Z3K2 1-276)
chain: MSLCEDMLLCNYRKCRIKLSGYAWVTACSHIFCDQHGSGEFSRSPAICPACNSTLSGKLDIVRTELSPSEEYKAMVLAGLRPEVVLDISSRALAFWTYQVHQERLYQEYNFSKAENHLKQMEKMYMQQIQSKNIELTSMKGEVISMKKVLEEYKKKFSDISEKLMERNRQYQKLQGLYDSLRLRNITIASQEGSLEPGMIPQSGVFGFPPGNNSKFSLDHIPVGNQGGGDEDVQFRPFFVCSPTAPEPINNFFSFASPSHEAEQQVCSRAFKAKRI
B4: MSH4 (protein, UniProt Q99MT2 1-958)
chain: MCCLFLRLRDYSTAHALSLPPCQRCGLQPWSARSHARRTLGVRKAGEMLRQEAASLSSSPRWTPSRRDAPCGRTLASASRPSTEGAMADRSSSSSSSPAPASAPGSSFGNKRSYAIHRAASSFPVGTSSSSARDTTYPHTFRTPLSAGNPQRSGHKSWTPQVGYSATSSAVSAHAPSVIVAVVEGRGLARGEIGMASIDLKSPQIMLSQFADNTTYAKVITKLQVLSPLEIIMSNTACVVGNSTKLFTLITENFKNVNFTTVQRKYFNETKGLEYIEQLCIAEFSSVLMEVQSRYYCLAAAAALLKYVEFIQNSVYAPKSLKIYFQGSEQTAMIDSSSAQNLELLVNNQDYRSNHTLFGVLNYTKTAGGSRRLRSNILEPLVDVETISMRLDCVQELLQDEELFFGLQSVISRFLDTEQLLSVLVQIPKQDTVNAAESKITNLIYLKHTLELVEPLKVTLKNCSTPLLRAYYGSLEDHRFGLILDKIKTVINDDARYMKGCLNMRTQKCYAVRSNISEFLDIARRTYTEIVDDIAGMIAQLAEKYSLPLRTSFSSSRGFFIQMTTDCAALSSDQLPSEFIKISKVKNSYSFTSADLIKMNERCQESLREIYHMTYMIVCKLLSEIYEHIHCLYKLSDTVSMLDMLLSFAHACTLSDYVRPEFTDTLAIKQGWHPILEKISAEKPVANNTYITEGSNVLIITGPNMSGKSTYLKQIALCQIMAQIGSYVPAEYASFRIAAQIFTRISTDDDIETNSSTFMKEMKEIAYILHNANDKSLILIDELGRGTNTEEGIGISYAVCEHLLSIKAFTLFTTHFLELCHLDALYLNVENMHFEVQHVKNTSRNKDAILYTYKLSRGLTEEKNYGLKAAEASSLPSSIVLDARDITTQITRQILQNQRSSPEMDRQRAVYHLATRLVQAARNSQLEPDRLRTYLSNLKKKYAGDFPRAVGLPEKTEE
B5: MSH5 (protein, UniProt Q9QUM7 1-833)
chain: MAFRATPGRTPPGPGPRSGIPSASFPSPQPPMAGPGGIEEEDEEEPAEIHLCVLWSSGYLGIAYYDTSDSTIHFMPDAPDHESLKLLQRVLDEINPQSVVTSAKQDEAMTRFLGKLASEEHREPKGPEIILLPSVDFGPEISKQRLLSGNYSFISDSMTATEKILFLSSIIPFDCVLTVRALGGLLKFLSRRRIGVELEDYDVGVPILGFKKFVLTHLVSIDQDTYSVLQIFKSESHPSVYKVASGLKEGLSLFGILNRCRCKWGQKLLRLWFTRPTRELRELNSRLDVIQFFLMPQNLDMAQMLHRLLSHIKNVPLILKRMKLSHTKVSDWQVLYKTVYSALGLRDACRSLPQSIQLFQDIAQEFSDDLHHIASLIGKVVDFEESLAENRFTVLPNIDPDIDAKKRRLIGLPSFLTEVAQKELENLDSRIPSCSVIYIPLIGFLLSIPRLPFMVEASDFEIEGLDFMFLSEDKLHYRSARTKELDTLLGDLHCEIRDQETLLMYQLQCQVLARASVLTRVLDLASRLDVLLALASAARDYGYSRPHYSPCIHGVRIRNGRHPLMELCARTFVPNSTDCGGDQGRVKVITGPNSSGKSIYLKQVGLITFMALVGSFVPAEEAEIGVIDAIFTRIHSCESISLGLSTFMIDLNQVAKAVNNATEHSLVLIDEFGKGTNSVDGLALLAAVLRHWLALGPSCPHVFVATNFLSLVQLQLLPQGPLVQYLTMETCEDGEDLVFFYQLCQGVASASHASHTAAQAGLPDPLIARGKEVSDLIRSGKPIKATNELLRRNQMENCQALVDKFLKLDLEDPTLDLDIFISQEVLPAAPTIL

Biological target: CNTD1^FH (C-terminally FLAG-HA tagged CNTD1 short form from the Cntd1^FH knock-in allele) (mouse (endogenous in testis))
Assay: affinity purification with mass spectrometry

Binder | binding
B1 | binds
B2 | no binding
B3 | no binding
B4 | no binding
B5 | no binding
